From paper PMC8877913
Results are given in words; binding and its absence hold for the method and conditions named. Binding seen in cells or lysates may run through a third protein. Some binding calls cover weakened binding; strength is not graded here.

Sequences of proteins named here, by UniProt entry; tags and fusion partners are left off.
UniProt P0C206: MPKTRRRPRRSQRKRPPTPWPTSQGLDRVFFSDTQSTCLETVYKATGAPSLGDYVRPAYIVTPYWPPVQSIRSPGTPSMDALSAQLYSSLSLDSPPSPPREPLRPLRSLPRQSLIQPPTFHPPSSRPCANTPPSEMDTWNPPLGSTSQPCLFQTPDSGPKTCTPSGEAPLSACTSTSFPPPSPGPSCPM

Target: GST-Rex (HTLV-1 Rex) (HTLV-1) (UniProt P0C206)
Test: pull-down

B1: NONO (non-POU domain-containing octamer-binding protein NONO/p54nrb) (protein, UniProt Q15233 1-471)
chain: MQSNKTFNLEKQNHTPRKHHQHHHQQQHHQQQQQQPPPPPIPANGQQASSQNEGLTIDLKNFRKPGEKTFTQRSRLFVGNLPPDITEEEMRKLFEKYGKAGEVFIHKDKGFGFIRLETRTLAEIAKVELDNMPLRGKQLRVRFACHSASLTVRNLPQYVSNELLEEAFSVFGQVERAVVIVDDRGRPSGKGIVEFSGKPAARKALDRCSEGSFLLTTFPRPVTVEPMDQLDDEEGLPEKLVIKNQQFHKEREQPPRFAQPGSFEYEYAMRWKALIEMEKQQQDQVDRNIKEAREKLEMEMEAARHEHQVMLMRQDLMRRQEELRRMEELHNQEVQKRKQLELRQEEERRRREEEMRRQQEEMMRRQQEGFKGTFPDAREQEIRMGQMAMGGAMGINNRGAMPPAPVPAGTPAPPGPATMMPDGTLGLTPPTTERFGQAATMEGIGAIGGTPPAFNRAAPGAEFAPNKRRRY
For B1, the binding was “binds”.
